What all share (test): log2 fold change, soluble protein after heating vs DMSO (PISA); higher = thermal stabilisation; K562 lysate, 10 uM; active = over 0.2 and 3.5 SD of the protein, either way, in both replicates (recomputed)
Compound in one experiment: CS(=O)(=O)CCNCc1ccc(-c2ccc3ncnc(Nc4ccc(OCc5cccc(F)c5)c(Cl)c4)c3c2)o1 [lapatinib]
An outline of the steps: (§1)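 Quantification was by TMTpro 16plex LC-MS/MS with equalised channel sums, applied to the supernatant after 21,000xg for 90 min. Samples were crude K562 extract at 1 mg/mL protein in PBS pH 7.4 with 1 mM MgCl2, treated with 10 μM compound for 30 min, heated for 3 min across 48°C-58°C, pooled and brought to 0.5% NP-40 at 4°C. Values are log-two fold changes in thermal stability relative to solvent controls, from duplicates.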

Protein sequences, listed by entry. Tags and fused reporters are not part of them. Lines headed by an entry give the natural chain unless they say otherwise; changes in a name come on top.
UniProt P09104, whole entry, looked up: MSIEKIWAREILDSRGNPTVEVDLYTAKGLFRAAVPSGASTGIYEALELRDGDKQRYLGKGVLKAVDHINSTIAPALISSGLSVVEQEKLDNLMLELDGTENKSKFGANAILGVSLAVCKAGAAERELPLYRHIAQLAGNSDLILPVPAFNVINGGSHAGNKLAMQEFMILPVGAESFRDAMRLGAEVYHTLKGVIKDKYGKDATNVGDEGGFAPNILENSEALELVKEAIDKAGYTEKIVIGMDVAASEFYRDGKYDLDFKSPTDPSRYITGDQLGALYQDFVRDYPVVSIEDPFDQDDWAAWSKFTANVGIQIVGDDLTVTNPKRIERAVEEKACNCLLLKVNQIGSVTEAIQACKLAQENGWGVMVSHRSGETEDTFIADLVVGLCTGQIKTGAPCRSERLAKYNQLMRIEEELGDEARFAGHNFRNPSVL
UniProt P41091, whole entry, looked up: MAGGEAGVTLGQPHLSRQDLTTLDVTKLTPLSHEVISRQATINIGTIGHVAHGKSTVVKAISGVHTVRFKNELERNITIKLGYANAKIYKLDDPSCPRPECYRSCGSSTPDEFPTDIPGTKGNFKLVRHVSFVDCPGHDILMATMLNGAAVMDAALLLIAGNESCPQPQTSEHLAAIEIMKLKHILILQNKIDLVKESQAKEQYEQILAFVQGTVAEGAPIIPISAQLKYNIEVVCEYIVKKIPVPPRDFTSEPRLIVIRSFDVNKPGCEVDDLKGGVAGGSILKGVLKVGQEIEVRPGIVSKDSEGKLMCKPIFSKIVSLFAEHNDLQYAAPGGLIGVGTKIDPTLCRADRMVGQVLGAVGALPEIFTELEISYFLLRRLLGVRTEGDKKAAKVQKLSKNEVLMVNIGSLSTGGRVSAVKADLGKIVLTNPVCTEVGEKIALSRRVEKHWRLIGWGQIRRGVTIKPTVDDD
UniProt Q13541: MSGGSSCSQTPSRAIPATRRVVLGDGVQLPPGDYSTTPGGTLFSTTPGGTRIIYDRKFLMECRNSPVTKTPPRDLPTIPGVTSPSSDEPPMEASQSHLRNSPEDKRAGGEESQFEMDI

Compound in the next experiment: CS(=O)(=O)N1CCN(Cc2cc3nc(-c4cccc5[nH]ncc45)nc(N4CCOCC4)c3s2)CC1 [pictilisib]
Summed up: as §1

Compound in the next experiment: C[C@@H](Oc1cc(-c2cnn(C3CCNCC3)c2)cnc1N)c1c(Cl)ccc(F)c1Cl [crizotinib]
An outline of the steps:
as §1

Compound in experiment [1]: C[C@H](C1=CC=C(C=C1)C(=O)NC2=C3C=CNC3=NC=C2)N
Summed up:
as §1

Compound in another experiment: C[C@H](Nc1ncnc2nc[nH]c12)c1cc2cccc(Cl)c2c(=O)n1-c1ccccc1 [duvelisib]
Summed up:
as §1

Compound in another experiment: Cc1cc(Nc2cc(CN3CCOCC3)c3nc(C)c(Cc4ccc(Cl)cc4F)n3n2)n[nH]1 [gandotinib]
Summed up:
as §1

Compound in a further experiment: Cc1cc(Nc2cc(N3CCN(C)CC3)nc(Sc3ccc(NC(=O)C4CC4)cc3)n2)n[nH]1 [tozasertib]
Summed up:
as §1

Compound in a further experiment: Cc1ccc(-n2nc(C(C)(C)C)cc2NC(=O)Nc2ccc(OCCN3CCOCC3)c3ccccc23)cc1 [doramapimod]
Summed up:
as §1

Compound in the next experiment: Cc1ccc(NC(=O)c2ccc(CN3CC[C@H](N(C)C)C3)c(C(F)(F)F)c2)cc1Nc1nccc(-c2cncnc2)n1 [bafetinib]
An outline of the steps:
as §1

Compound in experiment [2]: Cc1cccc(CC(=O)N2CCc3c2ccc(-c2cn(C)c4ncnc(N)c24)c3F)n1
An outline of the steps: as §1

Compound in another experiment: Cc1cn(-c2cc(NC(=O)c3ccc(C)c(Nc4nccc(-c5cccnc5)n4)c3)cc(C(F)(F)F)c2)cn1 [nilotinib]
An outline of the steps:
as §1

Compound in experiment [3]: Cc1nc(Nc2n[nH]c3c2CN(C(=O)N[C@H](CN(C)C)c2ccccc2)C3(C)C)c2sccc2n1
An outline of the steps:
as §1

Compound in another experiment: Cc1nc(Nc2ncc(C(=O)Nc3c(C)cccc3Cl)s2)cc(N2CCN(CCO)CC2)n1 [dasatinib]
Summed up: as §1

Compound in experiment [4]: Cc1ncc(-c2ccnc(Nc3ccc(S(C)(=O)=O)cc3)n2)n1C(C)C
An outline of the steps:
as §1

Compound in experiment [5]: Cn1cc(-c2ccc3c(c2)CCN3C(=O)Cc2cccc(C(F)(F)F)c2)c2c(N)ncnc21
An outline of the steps:
as §1

Compound in a further experiment: Cn1cc(CNCC2CCN(c3ncc(C(=O)NO)cn3)CC2)c2ccccc21 [quisinostat]
An outline of the steps: as §1

Compound in a further experiment: Cn1cncc1[C@@](N)(c1ccc(Cl)cc1)c1ccc2c(c1)c(-c1cccc(Cl)c1)cc(=O)n2C [tipifarnib]
Summed up: as §1

Compound in experiment [6]: NC(=O)Nc1cc(-c2cccc(F)c2)sc1C(=O)N[C@H]1CCCNC1
An outline of the steps: as §1

Compound in experiment [7]: NC(=O)c1cnc(N[C@@H]2CCCC[C@@H]2N)nc1Nc1cccc(-n2nccn2)c1
Summed up:
as §1

Compound in experiment [8]: NC1(c2ccc(-c3nc4ccn5c(=O)[nH]nc5c4cc3-c3ccccc3)cc2)CCC1
An outline of the steps:
as §1

This is one part of the list.

In the case of ENO2 (UniProt P09104), the log2 fold change with lapatinib is inactive: 0.01; in the experiment with pictilisib, inactive: 0.012; with crizotinib, inactive: -0.009; in [1], active: -0.358; with duvelisib, inactive: 0.04; in the experiment with gandotinib, inactive: 0.214. Also, the log2 fold change with tozasertib is inactive: -0.111; in the experiment with doramapimod, inactive: -0.012; with bafetinib it was inactive: -0.014; in experiment [2] it was active: 0.264; with nilotinib, inactive: 0.006; in [3], inactive: 0.017. In addition, the log2 fold change with dasatinib is inactive: 0.036; in experiment [4], inactive: 0.025; in experiment [5], inactive: 0; with quisinostat, inactive: -0.03; in the experiment with tipifarnib, inactive: -0.021; in experiment [6], inactive: 0.001. The log2 fold change is inactive: -0.043 in [7] and inactive: 0.003 in experiment [8].
As to EIF4H (UniProt Q15056), the log2 fold change with lapatinib was inactive: 0.015; with pictilisib, inactive: 0.009; with crizotinib, inactive: 0.064; in experiment [1], inactive: -0.019; in the experiment with duvelisib it was inactive: -0.027; with gandotinib, inactive: 0.042. The log2 fold change was inactive: 0.006 with tozasertib; inactive: 0.014 with doramapimod; inactive: 0.046 with bafetinib; inactive: 0.007 in [2]; inactive: -0.019 with nilotinib; inactive: 0.005 in experiment [3]. In addition, the log2 fold change was inactive: 0.047 with dasatinib; inactive: -0.07 in experiment [4]; inactive: 0.006 in [5]; inactive: 0.007 with quisinostat; inactive: 0.044 with tipifarnib; inactive: 0.022 in experiment [6]. In addition, the log2 fold change was inactive: 0.024 in experiment [7] and inactive: -0.004 in experiment [8].
For the target EIF2S3 (UniProt P41091), the log2 fold change was inactive: -0.03 in the experiment with lapatinib; inactive: 0.009 with pictilisib; inactive: 0.021 with crizotinib; inactive: 0.007 in experiment [1]; inactive: -0.022 with duvelisib; inactive: 0.025 with gandotinib. The log2 fold change is inactive: -0.011 with tozasertib; inactive: -0.018 with doramapimod; inactive: 0.035 in the experiment with bafetinib; inactive: -0.04 in [2]; inactive: 0.016 in the experiment with nilotinib; inactive: 0.018 in experiment [3]. For the same target, the log2 fold change with dasatinib is inactive: 0.03; in experiment [4], inactive: 0.017; in [5], inactive: -0.014; in the experiment with quisinostat, inactive: 0.017; with tipifarnib, inactive: 0.061; in [6] it was inactive: -0.021. Besides, the log2 fold change was inactive: -0.018 in [7] and inactive: -0.008 in experiment [8].
EIF4EBP1 (UniProt Q13541): the log2 fold change was inactive: 0.072 with lapatinib; inactive: 0.025 with pictilisib; inactive: 0.01 with crizotinib; inactive: 0.055 in experiment [1]; inactive: 0.06 with duvelisib; inactive: -0.118 with gandotinib. Besides, the log2 fold change with tozasertib was inactive: 0.074; in the experiment with doramapimod, inactive: 0.022; with bafetinib, inactive: -0.017; in experiment [2], inactive: -0.08; with nilotinib, inactive: 0.02; in experiment [3] it was inactive: 0.065. Further, the log2 fold change was inactive: 0.005 with dasatinib; inactive: 0.081 in [4]; inactive: -0.089 in experiment [5]; inactive: -0.023 with quisinostat; inactive: 0.083 with tipifarnib; inactive: -0.02 in experiment [6]. Further, the log2 fold change is inactive: -0.026 in experiment [7] and inactive: 0.023 in [8].

Values taken from the supplement of paper PMC10849652.
